Measurements reported in PubChem BioAssay AID1259274 (Sanger Institute, 2017).
The deposit covers 794 reagents; below is a part drawn at random. 11 of all reagents (1.4%) were called active. 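Calls rest on knock-down without drug only; synergy scores with anchor drugs were not used for the essential call.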 Entries without a mark were called inactive. No viability above 1 is reported: the scale is capped. Not all columns of the deposit are shown. The record does not give: the amount of reagent, the time to read-out.

- Test: 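Kinases RKO cells need to grow, alone or with anchor drugs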 (primary screen)
- Cell system: human RKO colorectal cancer cells
- Reagent: siRNA pool against human genes
- Treatment: anchor drugs BYL719 at 1 µM, cetuximab at 5 µg/ml or trametinib at 10 nM; DMSO vehicle as the no-drug arm
- Read-out: 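Viability of cells versus control pool 2 (non-targeting) averaged across replicates; knock-down-only robust z-score; for every anchor drug (BYL719, cetuximab, trametinib) a synergy score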
- Scale: viability z-score, siRNA alone: higher = more viable cells; low values mean essential gene; viability, siRNA alone, vehicle: higher = more viable cells
- Units: viability, siRNA alone, vehicle in fraction of control
- Hit rule: 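a single knock-down scoring under -3 on the robust z-score, meaning fewer cells, counts as essential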
- Calls: active = essential when knocked down alone; inactive = no change alone

After knock-down of MAP3K8, the screen gave viability z-score, siRNA alone -0.651; viability, siRNA alone, vehicle 0.842. Against SRC, the entry reads viability z-score, siRNA alone -0.663; viability, siRNA alone, vehicle 0.841. Knock-down of NEK9 gave: viability z-score, siRNA alone 0.879; viability, siRNA alone, vehicle 0.973. After knock-down of PHKA2, the record shows viability z-score, siRNA alone -0.063; viability, siRNA alone, vehicle 0.893. Against MAP4K1, the entry reads viability z-score, siRNA alone -0.217; viability, siRNA alone, vehicle 0.879. After knock-down of SKAP1 the results were viability z-score, siRNA alone 1.19; viability, siRNA alone, vehicle 1.

STK17A gave viability z-score, siRNA alone -0.756; viability, siRNA alone, vehicle 0.833.

Entries above whose target name begins with M or m:
MAP3K8 — viability z-score, siRNA alone: -0.651; viability, siRNA alone, vehicle: 0.842
MAP4K1 — viability z-score, siRNA alone: -0.217; viability, siRNA alone, vehicle: 0.879

The results go on.
Against EIF2AK3 the deposit lists viability z-score, siRNA alone 0.434; viability, siRNA alone, vehicle 0.935. After knock-down of PRKD3, the screen gave viability z-score, siRNA alone -0.701; viability, siRNA alone, vehicle 0.838. With knock-down of NADK, the screen gave viability z-score, siRNA alone -0.506; viability, siRNA alone, vehicle 0.855. Against MAP3K5, the entry reads viability z-score, siRNA alone 0.371; viability, siRNA alone, vehicle 0.93. After knock-down of PFKFB3, the record shows viability z-score, siRNA alone -0.452; viability, siRNA alone, vehicle 0.859.
